Assay results published in US20200291096A1, “BICYCLIC PEPTIDE LIGAND STING CONJUGATES AND USES THEREOF” (priority 2017, published 2020).
Not every detail of the peptide structures is certain; ends, links or a residue may be inferred. At least one structure is not confirmed: it was looked up by name or label, or the drawing left a doubt. Starred links: 1 amine or outer side, 2 acyl side, 3 side chain; linkers in the order of their positions; H or OH if unused. Positions of bridges follow the written chain, without caps; N, C: chain ends. Non-standard residues stand in square brackets, D forms with d. Residues, ends and D or L forms follow the SMILES beside them. *: point of attachment. X1 = CC(C)[C@H](NC(=O)Cn1cc(CCC(=O)*)nn1)C(=O)N[C@@H](CCCNC(N)=O)C(=O)Nc1ccc(COC(=O)N(C)CCN(C)C(=O)O[C@@H]2[C@@H]3OP(=O)(O)OC[C@H]4O[C@@H](n5cnc6c(N)ncnc65)[C@H](O)[C@@H]4OP(=O)(O)OC[C@H]3O[C@H]2n2cnc3c(=O)[nH]c(N)nc32)cc1; 1Nal = N[C@@H](Cc1cccc2ccccc12)C(=O)O; TBMB = c1c(C[*:1])cc(C[*:3])cc1C[*:2]; Tle = CC(C)(C)[C@H](N)C(=O)O; βAla = NCCC(=O)O; Sar = CNCC(=O)O

Test system: THP1-Dual cells expressing STING
Experiment: THP1 STING reporter cell assay
Type: cell-based, human
Details: up to 100 uM, 24 hours (FIG. 2)

With `CC(C)[C@H](NC(=O)Cn1cc(CCC(=O)NCCC(=O)N(C)CC(=O)N(C)CC(=O)N(C)CC(=O)N(C)CC(=O)N(C)CC(=O)N(C)CC(=O)N(C)CC(=O)N(C)CC(=O)N(C)CC(=O)N(C)CC(=O)N[C@@H](C)C(=O)N[C@H]2CSCc3cc4cc(c3)CSC[C@H](NC(=O)[C@@H](C)NC(=O)[C@H](Cc3cccc5ccccc35)NC(=O)[C@H](CCC(=O)O)NC(=O)[C@H](CC(N)=O)NC(=O)[C@@H](C)NC2=O)C(=O)N[C@@H](CCC(=O)O)C(=O)N[C@@H](CC(=O)O)C(=O)N[C@@H](Cc2ccccc2)C(=O)N[C@@H](Cc2ccc(O)cc2)C(=O)N[C@@H](CC(=O)O)C(=O)N[C@@H](C(C)(C)C)C(=O)N[C@H](C(N)=O)CSC4)nn1)C(=O)N[C@@H](CCCNC(N)=O)C(=O)Nc1ccc(COC(=O)N(C)CCN(C)C(=O)O[C@@H]2[C@@H]3OP(=O)(O)OC[C@H]4O[C@@H](n5cnc6c(N)ncnc65)[C@H](O)[C@@H]4OP(=O)(O)OC[C@H]3O[C@H]2n2cnc3c(=O)[nH]c(N)nc32)cc1` [I-68] ({X1-βAla}-[Sar][Sar][Sar][Sar][Sar][Sar][Sar][Sar][Sar][Sar]AC[dA]NE[1Nal][dA]CEDFYD[Tle]C-NH2; linker 12-18-25 via TBMB) the “STING reporter activity (ISG/IFNβ promoter luciferase)” value was “does not induce STING reporter activity”.
